Measured values as given in paper PMC10980718.
These are yes or no findings as the source states them, for the method shown. Binding seen in cells or lysates may run through a third protein. Some entries that bind do so weakly or less than the wild type.

Protein sequences, listed by entry. Tags and fused reporters are not part of them.
UniProt Q86WV6: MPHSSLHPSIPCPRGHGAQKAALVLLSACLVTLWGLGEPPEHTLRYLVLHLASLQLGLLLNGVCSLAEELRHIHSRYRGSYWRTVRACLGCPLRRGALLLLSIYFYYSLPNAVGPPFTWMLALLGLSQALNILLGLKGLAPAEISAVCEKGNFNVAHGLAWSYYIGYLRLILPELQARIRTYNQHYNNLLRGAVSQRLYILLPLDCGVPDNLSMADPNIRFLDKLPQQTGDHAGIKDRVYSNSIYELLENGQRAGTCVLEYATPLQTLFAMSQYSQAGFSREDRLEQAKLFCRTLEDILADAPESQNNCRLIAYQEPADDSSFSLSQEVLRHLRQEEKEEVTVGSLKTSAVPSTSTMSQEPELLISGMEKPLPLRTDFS

Molecular target: STING-ER Exit Protein (STEEP) (human (endogenous in THP1)) (UniProt Q9H5V9)
Experiment: co-IP; endogenous STING or STEEP immunoprecipitated from THP1 cells pre-treated with mock or MβCD (2 mM) and then stimulated with cGAMP (50 µg/ml); IgG from sheep/rabbit serum as negative controls; immunoblot

- binding: binds
Substance: STING (Stimulator of interferon genes) (from UniProt Q86WV6 1-379)
